The campaign covered roughly 59,000 compounds. About 35 (0.06%) were called active. Inconclusive means that the source gave no clear call. Such entries were picked first, then a sample of the others. Cut-off read from the data, not from the text of the source: active = max dye-equivalent concentration above about 10 nM; inconclusive = between about 1.1 nM and that limit; inactive = weaker than that.
assay: qHTS Assay for Spectroscopic Profiling in Texas Red Spectral Region; conditions: Compound fluorescence, Texas Red channel, 547/618 nm; hits give high values
Method in brief: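 Compound fluorescence was read after 15 min at room temperature in 100 mM Tris, pH 8.0, using 547 nm excitation and 618 nm emission across a concentration series. It was expressed as Texas Red dye-equivalent concentration from an on-plate standard curve.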

SMILES | max dye-equivalent concentration
CC(=O)c1cccc(NC(=O)CCNS(=O)(=O)c2cccc3nsnc23)c1 | inconclusive: 1.1 nM
COc1cc(Cl)c(CC(=O)c2c[nH]c3ccccc23)cc1OC | inconclusive: 1.6 nM
COc1ccc(C)cc1-n1c(SCC(=O)Nc2cc(C)on2)nc2sc(C)c(C)c2c1=O | inconclusive: 1.2 nM
CCOC(=O)Cn1cnc2sc3c(c2c1=O)CCC3 | inconclusive: 1.2 nM
Cc1ccc(S(=O)(=O)Cn2nnnc2C(C)N2CCN(C(=O)c3ccco3)CC2)cc1 (centres undefined) | inconclusive: 1.2 nM
O=c1cnc2cncnc2n1Cc1ccccc1Cl | inactive
CC1(C)CC(=O)C2=C(C1)Oc1ncn(Cc3ccco3)c(=N)c1C2c1ccccc1 (centres undefined) | inconclusive: 1.8 nM
CCOC(=O)N1CCN(c2nc3ccccc3nc2C(C#N)C(=O)NCCc2ccccc2)CC1 (centres undefined) | inactive
CCOC(=O)N1CCN(C2=Nc3cccc4cccc2c34)CC1 | inactive
O=C(NCc1ccco1)c1cccnc1-c1nc2ccccc2s1 | inactive
O=C(O)CCC(=O)N1CCC(C(=O)c2cccc(Cl)c2)CC1 | inconclusive: 2.3 nM
CCn1c(SCC(=O)N2CCc3ccccc32)nnc1-c1c[nH]c2ccccc12 | inconclusive: 2.6 nM
COc1ccc(S(=O)(=O)N2CCCC2)c(C)c1C | inconclusive: 1.9 nM
CN(C(=O)NC(=O)C1=C(N2CCOCC2)/C(=C/c2ccccc2)CC1)S(C)(=O)=O | inconclusive: 1.5 nM
O=C(c1ccccc1)N1CCN(C2CC3CCC2C3)CC1 (centres undefined) | inconclusive: 1.8 nM
CCOC(=O)COn1c2c(c3c4no[n+]([O-])c4ccc31)CCCC2 | inconclusive: 1.2 nM
Nc1nc2nc3c(nc2c(=O)[nH]1)CN(c1ccc(C(=O)O)cc1)C3=O | inconclusive: 1.9 nM
COc1cccc(C(=O)Nc2ccc(C(=O)O)cc2)c1 | inconclusive: 1.2 nM
COc1ccc(C(=O)N2CCC3(CC2)CN(c2cccc(-c4ccccc4)c2)C3)cc1 | inactive
COc1ccc(C)cc1-n1nnnc1SC/C(O)=C(\C#N)c1nc2ccccc2[nH]1 | inconclusive: 1.2 nM
CCC(Sc1nncn1C)C(=O)Nc1ccccc1OC (centres undefined) | inconclusive: 1.1 nM
CCOC(=O)COc1nc(C)c(Br)c(OC)n1 | inconclusive: 1.1 nM
COCC(=O)NCCNc1nc2ccc(C)cc2cc1C | inconclusive: 1.2 nM
COc1ccc(N2C(=O)C3CCCN3C2c2cccc(F)c2)cc1Cl (centres undefined) | inconclusive: 1.2 nM

Pulled by compound from above (2):
SMILES | max dye-equivalent concentration
COCC(=O)NCCNc1nc2ccc(C)cc2cc1C | inconclusive: 1.2 nM
CC(=O)c1cccc(NC(=O)CCNS(=O)(=O)c2cccc3nsnc23)c1 | inconclusive: 1.1 nM

— PubChem BioAssay AID587 (National Center for Advancing Translational Sciences (NCATS), 2007)
